Values from PubChem BioAssay AID686937 (Drosophila RNAi Screening Center, 2013)
The screen tested about 23,000 reagents; shown is a random part of those that have a named target and a result. 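Reduced-secretion tags in replicate 1 do not always agree with the z-scores; no criterion for assigning the tags was given.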 The numbers tell different reagents against one gene apart. Names joined by + are all predicted targets of the reagent. No sequences are given here. Not stated in the record: the amount of reagent.

- Purpose: 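Genes in the fly needed for secretion of protein constitutively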 (primary screen)
- Cells: Drosophila S2 cells expressing secreted horseradish peroxidase
- Reagents: long dsRNA against Drosophila genes
- Duration: about 5.5 days (5 days dsRNA, then 12 h reporter induction)
- Conditions: reporter expression induced after 5 days of dsRNA, read 12 h later; inducer not stated
- Measurement: 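Chemiluminescent measurement of peroxidase in the medium 12 h after reporter induction, following 5 days of dsRNA, given as a z-score per plate; higher means more secretion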
- Reading the numbers: z-score: higher = more reporter secreted into medium

target gene	reagent no.	z-score, replicate 1	z-score, replicate 2	phenotype, replicate 1
clos (closca)	1	0.23	0.35	
clos (closca)	2	0.23	0.37	
clos (closca)	3	0.04	0.21	
clos (closca)	4	0.32	-0.08	
clos (closca)	5	-1.32	-0.46	
Cnx99A + Cnx14D	1	0.39	0.52	
CG6362	1	0.33	-0.05	
BthD (BthD selenoprotein)	1	0.04	-0.23	
CG1607	1	0.29	-0.13	
RpL35A (Ribosomal protein L35A)	1	-4.04	-2.81	reduced secretion
IntS11 (Integrator 11)	1	0.79	0.79	
CG4004	1	0.35	0.62	
CG4004	2	0.34	0.61	
mtm (myotubularin)	1	0.36	0.35	
Ir31a (Ionotropic receptor 31a)	1	-1.11	0.18	
Mpv17 (Mitochondrial inner membrane protein MPV17)	1	0.25	0.33	
CG7579	1	0.17	0.1	
CG34193	1	0.35	0.51	
CG3630	1	0.25	-0.01	
CG7856	1	0.11	0.29	
Ube3a (Ubiquitin protein ligase E3A)	1	0.03	0.36	
azot (ahuizotl)	1	0.19	0.29	
Nipped-B	1	0.26	0.43	
Noc3 (Nucleolar complex protein 3)	1	0.03	-0.37	
CG33160	1	0.42	0.36	
CG6569	1	0.13	0.45	
MED11 (Mediator complex subunit 11)	1	-5.67	-5.96	reduced secretion
CG6891	1	0.26	0.35	
CG34200	1	0.08		
Cpr78E (Cuticular protein 78E)	1	0.27	0.39	
beat-IIIb (beaten path IIIb)	1	0.37	0.21	
Dpit47 (DNA polymerase interacting tpr containing protein of 47kD)	1	0.03	-0.31	
Als2 (Amyotrophic lateral sclerosis 2)	1	0.21	0.29	
CG17141	1	0.15	0.18	
CG7264	1	-0.21	0.09	
Cpr64Ac (Cuticular protein 64Ac)	1	0.23	0.18	
RpL7 (Ribosomal protein L7)	1	-3.95	-4.75	reduced secretion
5-HT1B (5-hydroxytryptamine (serotonin) receptor 1B)	1	0.23	0.54	
5-HT1B (5-hydroxytryptamine (serotonin) receptor 1B)	2	-4.72	-5.21	reduced secretion
Or24a (Odorant receptor 24a)	1	0.68	0.47	
CG16956	1	0.39	0.42	
PIP4K (Phosphatidylinositol 5-phosphate 4-kinase)	1	0.44	0.39	
CG42591	1	0.3	0.42	
Ankrd49	1	0.27	0.34	
comm (commissureless)	1	0.53	0.32	
CG7011	1	0.38	0.33	
CG12531	1	0.4	0.39	
CG42534	1	0.44	0.07	
CG42534	2	-1.69	-1.21	reduced secretion
CG42534	3	0.24	0.47	
Rgk2 (Rad, Gem/Kir family member 2)	1	0.3	0.18	
Rgk2 (Rad, Gem/Kir family member 2)	2	-0.66	-0.57	
vap (vacuolar peduncle)	1	0.04	0.07	
CG1299	1	0.46	0.27	
Idgf3 (Imaginal disc growth factor 3)	1	0.48	0.29	
CG12194	1	0.38	0.39	
CG18675	1	-0.87	-0.12	
brv3 (brivido-3)	1	0.13	0.29	
CG17349	1	0.22	0.3	
Hml (Hemolectin)	1	0.52	0.27	
Syx6 (Syntaxin 6)	1	0.27	0.21	
lncRNA:CR30055 (long non-coding RNA:CR30055)	1	2.54	0.11	
CG33233	1	-0.01	0.13	
okr (okra)	1	0.28	0.42	
Uhg3 (U snoRNA host gene 3)	1	-0.36	0.36	
Cp19 (Chorion protein 19)	1	0.36	0.45	
Abca3 (ATP binding cassette subfamily A member 3)	1	0.39	0.5	
Meltrin	1	0.16	0.21	
Meltrin	2	0.28	-0.06	
Pex2 (Peroxin 2)	1	0.36	0.37	
Dim1	1	-1.34	-0.98	
side-VI (sidestep VI)	1	0.26	0.01	
side-VI (sidestep VI)	2	0.23	0.24	
side-VI (sidestep VI)	3	0.11	-0.14	
side-VI (sidestep VI)	4	0.09	-0.32	
CHOp24	1	-0.38	-0.53	
c-cup (calcutta cup)	1	0.18	0.34	
TpnC25D (Troponin C at 25D)	1	0.12	0.14	
Cht6 (Chitinase 6)	1	0.33	0.5	
Cht6 (Chitinase 6)	2	-0.56	-1.05	
Cht6 (Chitinase 6)	3	0.37	-5.97	
Use1 (Unconventional SNARE in the ER 1)	1	-2.12	-0.88	reduced secretion

Reformatted: 5 of the entries above
| target gene | reagent no. | z-score, replicate 1 | z-score, replicate 2 | phenotype, replicate 1 |
| --- | --- | --- | --- | --- |
| clos (closca) | 5 | -1.32 | -0.46 | – |
| Cnx99A + Cnx14D | 1 | 0.39 | 0.52 | – |
| CG6362 | 1 | 0.33 | -0.05 | – |
| BthD (BthD selenoprotein) | 1 | 0.04 | -0.23 | – |
| CG1607 | 1 | 0.29 | -0.13 | – |
